Data published in US20100167274.
For some assays here: The comparison behind a weaker result is the experiment's own reference, which may not be listed here. For some assays here: The exact form of at least one protein or probe is not confirmed.

By UniProt entry, the sequences of proteins in these tests, tags left out. Where a name states a change or a piece, a line headed by the entry shows the natural chain unless it says otherwise.
UniProt P0A7G6: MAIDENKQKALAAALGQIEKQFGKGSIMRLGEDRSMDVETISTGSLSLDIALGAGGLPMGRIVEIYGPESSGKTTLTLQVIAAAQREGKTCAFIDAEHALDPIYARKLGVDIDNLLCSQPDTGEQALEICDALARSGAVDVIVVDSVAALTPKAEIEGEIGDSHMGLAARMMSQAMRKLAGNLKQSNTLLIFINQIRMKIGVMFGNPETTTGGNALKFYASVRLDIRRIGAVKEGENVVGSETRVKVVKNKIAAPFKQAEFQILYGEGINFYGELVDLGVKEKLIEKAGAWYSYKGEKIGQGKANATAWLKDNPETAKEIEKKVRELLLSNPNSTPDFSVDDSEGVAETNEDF

How the values were obtained:
RecA [1] = target: RecA (UniProt P0A7G6); assay: binding assay; settings: RecA polymerizes on overhang; exchange with non-denatured target duplex SEQ 31/32; reduced by target SNPs at positions 6 and beyond; purified recombinant protein; protein details: New England Biolabs; label: Cy5 5' on SEQ 29, TAMRA 3' on SEQ 30
RecA [2] = target: RecA (UniProt P0A7G6); assay: activity assay; settings: FRET strand exchange; large reduction over whole RecA range; 2 mM ATP; purified recombinant protein; protein details: New England Biolabs; single-stranded DNA; variant of ssDNA invader, full homology (FIG. 2a-b)

| Sequence | binding result (RecA [1]) | activity on this sequence (RecA [2]) |
| --- | --- | --- |
| TAGACATCTCCTGTTCGTTGCAACAAATTGATAAGCAATGCTTTTTTATAATGCATGCAAGTGAAACCT / CGAATTCAATTTGTTGCAACGAACAGGTCTA [labeled probe 69-mer/31-mer with full homology target duplex] | binds |  |
| TAGACCTGTTGGTTGCAACAAATTCATAAGCAATGGTTTTTTATAATGCAGTGAA [ssDNA invader, three mismatches] |  | less active |
